{"source": "PubChem BioAssay AID1224830, NIAID – 2016", "purpose": "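Host factors that control LPS-induced TNF expression in human macrophages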 (primary screen)", "cell system": "human THP-1 monocytic leukaemia cells, TNF dual-luciferase reporter clone, PMA-differentiated to macrophage-like cells", "reagents": "siRNA pool against human genes, 50 nM", "timing": "LPS for 4 h, given about 3 days after siRNA transfection", "challenge": "bacterial LPS (TLR4 ligand), 10 ng/ml", "read-out": "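TNF firefly reporter luminescence divided by renilla, normalised to the plate median, then turned into a robust z-score for each replicate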", "scale": "TNF reporter robust z-score: higher = stronger TNF reporter response to LPS", "hit rule": "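a well is active when its z-score exceeds 2.8 or falls below -1.5; control wells carry no call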", "note": "The deposit covers about 18,000 reagents; shown is a part drawn at random. About 2,900 of them (16%) count as active. 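Calls are made per well; low scores hint the gene aids the LPS response, high scores that it dampens it.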 A number with no mark means an inactive call. Repeated entries: four replicate wells of each siRNA pool."}
{"Target gene": "HSD17B7", "TNF reporter robust z-score": 0.74}
{"Target gene": "HSD17B7", "TNF reporter robust z-score": 1.43}
{"Target gene": "HSD17B7", "TNF reporter robust z-score": "-1.53 (active)"}
{"Target gene": "HSD17B7", "TNF reporter robust z-score": 0.14}
{"Target gene": "HSFX1", "TNF reporter robust z-score": "-1.89 (active)"}
{"Target gene": "HSFX1", "TNF reporter robust z-score": "-1.69 (active)"}
{"Target gene": "HSFX1", "TNF reporter robust z-score": "-1.55 (active)"}
{"Target gene": "HSFX1", "TNF reporter robust z-score": "-1.85 (active)"}
{"Target gene": "ZNF93", "TNF reporter robust z-score": -1.21}
{"Target gene": "ZNF93", "TNF reporter robust z-score": "-1.55 (active)"}
{"Target gene": "ZNF93", "TNF reporter robust z-score": "-1.89 (active)"}
{"Target gene": "ZNF93", "TNF reporter robust z-score": "-1.67 (active)"}
{"Target gene": "ZFP91", "TNF reporter robust z-score": 0.09}
{"Target gene": "ZFP91", "TNF reporter robust z-score": 0.78}
{"Target gene": "ZFP91", "TNF reporter robust z-score": 0.32}
{"Target gene": "ZFP91", "TNF reporter robust z-score": 2.09}
{"Target gene": "SCIMP", "TNF reporter robust z-score": -0.66}
{"Target gene": "SCIMP", "TNF reporter robust z-score": 1.26}
{"Target gene": "SCIMP", "TNF reporter robust z-score": 1.28}
{"Target gene": "SCIMP", "TNF reporter robust z-score": 0.22}
{"Target gene": "ACSS3", "TNF reporter robust z-score": -0.5}
{"Target gene": "ACSS3", "TNF reporter robust z-score": -1.17}
{"Target gene": "ACSS3", "TNF reporter robust z-score": -0.69}
{"Target gene": "ACSS3", "TNF reporter robust z-score": -0.82}
{"Target gene": "ERBB2", "TNF reporter robust z-score": -1.35}
{"Target gene": "ERBB2", "TNF reporter robust z-score": 2}
{"Target gene": "ERBB2", "TNF reporter robust z-score": 0.52}
{"Target gene": "ERBB2", "TNF reporter robust z-score": 0.43}
{"Target gene": "GIMAP5", "TNF reporter robust z-score": 0.05}
{"Target gene": "GIMAP5", "TNF reporter robust z-score": -0.2}
{"Target gene": "GIMAP5", "TNF reporter robust z-score": -0.09}
{"Target gene": "GIMAP5", "TNF reporter robust z-score": 0.16}
{"Target gene": "KIF26B", "TNF reporter robust z-score": "-1.98 (active)"}
{"Target gene": "KIF26B", "TNF reporter robust z-score": -0.75}
{"Target gene": "KIF26B", "TNF reporter robust z-score": -0.92}
{"Target gene": "KIF26B", "TNF reporter robust z-score": -1.03}
{"Target gene": "OR1N1", "TNF reporter robust z-score": 2.03}
{"Target gene": "OR1N1", "TNF reporter robust z-score": 0.24}
{"Target gene": "OR1N1", "TNF reporter robust z-score": 1.27}
{"Target gene": "OR1N1", "TNF reporter robust z-score": -0.58}
{"Target gene": "PRAMEF2", "TNF reporter robust z-score": 0.82}
{"Target gene": "PRAMEF2", "TNF reporter robust z-score": 0.19}
{"Target gene": "PRAMEF2", "TNF reporter robust z-score": 0.5}
{"Target gene": "PRAMEF2", "TNF reporter robust z-score": 1.06}
{"Target gene": "ATP6V0D2", "TNF reporter robust z-score": 0.35}
{"Target gene": "ATP6V0D2", "TNF reporter robust z-score": 0.92}
{"Target gene": "ATP6V0D2", "TNF reporter robust z-score": 0.87}
{"Target gene": "ATP6V0D2", "TNF reporter robust z-score": 2.72}

Records listed so far whose gene name starts with G or g (4):
{"Target gene": "GIMAP5", "TNF reporter robust z-score": 0.05}
{"Target gene": "GIMAP5", "TNF reporter robust z-score": -0.2}
{"Target gene": "GIMAP5", "TNF reporter robust z-score": -0.09}
{"Target gene": "GIMAP5", "TNF reporter robust z-score": 0.16}
